This note sets out measurements from PMC5093460.

Amino acid sequences for entries named in this document (tags omitted). Residues count along the entry.
UniProt O95398, residues 43-923: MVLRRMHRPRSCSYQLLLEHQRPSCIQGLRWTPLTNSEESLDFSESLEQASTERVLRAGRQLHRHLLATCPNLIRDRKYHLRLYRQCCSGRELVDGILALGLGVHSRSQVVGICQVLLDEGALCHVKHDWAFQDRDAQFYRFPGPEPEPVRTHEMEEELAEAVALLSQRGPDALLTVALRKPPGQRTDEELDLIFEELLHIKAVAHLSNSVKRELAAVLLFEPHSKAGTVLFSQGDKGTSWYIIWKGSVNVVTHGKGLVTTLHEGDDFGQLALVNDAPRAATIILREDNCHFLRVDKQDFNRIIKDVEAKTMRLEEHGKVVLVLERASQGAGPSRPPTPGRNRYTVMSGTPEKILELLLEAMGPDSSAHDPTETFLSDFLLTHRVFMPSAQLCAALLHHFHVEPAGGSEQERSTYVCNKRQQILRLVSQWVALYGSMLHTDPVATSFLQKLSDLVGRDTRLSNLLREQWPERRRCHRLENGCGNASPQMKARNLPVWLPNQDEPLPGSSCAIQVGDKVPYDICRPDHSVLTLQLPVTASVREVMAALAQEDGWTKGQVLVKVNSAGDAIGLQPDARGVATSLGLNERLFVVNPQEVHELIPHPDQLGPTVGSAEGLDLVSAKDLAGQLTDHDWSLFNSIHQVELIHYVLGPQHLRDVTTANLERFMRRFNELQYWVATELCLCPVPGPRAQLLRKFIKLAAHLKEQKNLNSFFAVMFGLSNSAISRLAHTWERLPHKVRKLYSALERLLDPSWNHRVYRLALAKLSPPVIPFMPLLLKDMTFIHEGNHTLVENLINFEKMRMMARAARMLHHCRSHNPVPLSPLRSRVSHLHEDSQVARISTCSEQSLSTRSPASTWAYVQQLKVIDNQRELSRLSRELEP
UniProt P0DMV8: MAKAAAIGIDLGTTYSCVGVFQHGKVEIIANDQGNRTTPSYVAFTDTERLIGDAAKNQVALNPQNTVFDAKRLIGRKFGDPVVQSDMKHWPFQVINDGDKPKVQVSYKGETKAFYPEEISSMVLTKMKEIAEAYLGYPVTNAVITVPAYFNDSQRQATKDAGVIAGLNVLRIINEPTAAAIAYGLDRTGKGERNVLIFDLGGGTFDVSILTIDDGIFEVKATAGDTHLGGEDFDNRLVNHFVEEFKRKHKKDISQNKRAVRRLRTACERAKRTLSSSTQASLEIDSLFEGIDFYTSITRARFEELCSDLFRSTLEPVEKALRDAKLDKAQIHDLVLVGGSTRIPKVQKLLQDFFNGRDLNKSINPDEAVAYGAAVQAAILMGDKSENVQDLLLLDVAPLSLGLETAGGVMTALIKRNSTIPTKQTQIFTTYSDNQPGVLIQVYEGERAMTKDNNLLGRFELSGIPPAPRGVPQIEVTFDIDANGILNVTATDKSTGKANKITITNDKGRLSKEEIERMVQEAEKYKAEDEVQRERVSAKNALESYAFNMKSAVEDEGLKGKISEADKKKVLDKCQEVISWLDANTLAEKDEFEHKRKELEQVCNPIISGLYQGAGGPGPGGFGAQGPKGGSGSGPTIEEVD
UniProt P54652: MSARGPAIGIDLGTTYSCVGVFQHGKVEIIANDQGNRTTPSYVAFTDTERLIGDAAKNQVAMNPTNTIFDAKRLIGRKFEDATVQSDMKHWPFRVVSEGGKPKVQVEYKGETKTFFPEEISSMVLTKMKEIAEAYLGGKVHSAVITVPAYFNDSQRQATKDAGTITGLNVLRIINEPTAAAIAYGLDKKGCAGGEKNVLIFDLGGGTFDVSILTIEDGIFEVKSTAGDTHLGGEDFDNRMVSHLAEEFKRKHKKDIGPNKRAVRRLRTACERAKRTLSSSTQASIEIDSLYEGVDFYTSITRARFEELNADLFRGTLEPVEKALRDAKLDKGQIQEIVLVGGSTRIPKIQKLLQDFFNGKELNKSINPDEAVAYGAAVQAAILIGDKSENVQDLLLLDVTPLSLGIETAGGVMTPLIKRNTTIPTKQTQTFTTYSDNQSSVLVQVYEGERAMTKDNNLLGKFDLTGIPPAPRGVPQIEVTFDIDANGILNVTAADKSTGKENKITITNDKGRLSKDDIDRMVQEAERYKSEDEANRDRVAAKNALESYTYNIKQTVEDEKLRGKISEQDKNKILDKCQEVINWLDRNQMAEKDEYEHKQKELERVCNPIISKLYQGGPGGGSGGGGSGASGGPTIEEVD
UniProt P08238: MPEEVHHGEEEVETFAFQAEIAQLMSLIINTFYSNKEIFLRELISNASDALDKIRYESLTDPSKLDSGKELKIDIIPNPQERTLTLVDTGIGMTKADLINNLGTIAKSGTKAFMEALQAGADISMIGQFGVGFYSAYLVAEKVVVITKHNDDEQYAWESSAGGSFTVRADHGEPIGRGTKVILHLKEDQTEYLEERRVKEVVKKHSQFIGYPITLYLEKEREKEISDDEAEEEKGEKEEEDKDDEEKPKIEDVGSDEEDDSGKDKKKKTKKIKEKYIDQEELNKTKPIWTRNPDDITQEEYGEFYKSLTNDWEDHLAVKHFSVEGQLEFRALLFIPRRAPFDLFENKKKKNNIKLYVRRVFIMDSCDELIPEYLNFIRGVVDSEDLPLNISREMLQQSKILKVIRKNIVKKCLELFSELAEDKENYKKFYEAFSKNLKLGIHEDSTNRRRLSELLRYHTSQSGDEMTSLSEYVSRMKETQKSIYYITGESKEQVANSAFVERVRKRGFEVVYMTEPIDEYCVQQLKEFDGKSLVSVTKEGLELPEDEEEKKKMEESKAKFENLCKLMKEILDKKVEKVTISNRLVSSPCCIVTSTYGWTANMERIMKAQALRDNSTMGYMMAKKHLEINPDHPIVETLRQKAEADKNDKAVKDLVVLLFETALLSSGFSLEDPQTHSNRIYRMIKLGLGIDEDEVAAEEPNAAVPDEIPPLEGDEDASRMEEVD
UniProt Q14974: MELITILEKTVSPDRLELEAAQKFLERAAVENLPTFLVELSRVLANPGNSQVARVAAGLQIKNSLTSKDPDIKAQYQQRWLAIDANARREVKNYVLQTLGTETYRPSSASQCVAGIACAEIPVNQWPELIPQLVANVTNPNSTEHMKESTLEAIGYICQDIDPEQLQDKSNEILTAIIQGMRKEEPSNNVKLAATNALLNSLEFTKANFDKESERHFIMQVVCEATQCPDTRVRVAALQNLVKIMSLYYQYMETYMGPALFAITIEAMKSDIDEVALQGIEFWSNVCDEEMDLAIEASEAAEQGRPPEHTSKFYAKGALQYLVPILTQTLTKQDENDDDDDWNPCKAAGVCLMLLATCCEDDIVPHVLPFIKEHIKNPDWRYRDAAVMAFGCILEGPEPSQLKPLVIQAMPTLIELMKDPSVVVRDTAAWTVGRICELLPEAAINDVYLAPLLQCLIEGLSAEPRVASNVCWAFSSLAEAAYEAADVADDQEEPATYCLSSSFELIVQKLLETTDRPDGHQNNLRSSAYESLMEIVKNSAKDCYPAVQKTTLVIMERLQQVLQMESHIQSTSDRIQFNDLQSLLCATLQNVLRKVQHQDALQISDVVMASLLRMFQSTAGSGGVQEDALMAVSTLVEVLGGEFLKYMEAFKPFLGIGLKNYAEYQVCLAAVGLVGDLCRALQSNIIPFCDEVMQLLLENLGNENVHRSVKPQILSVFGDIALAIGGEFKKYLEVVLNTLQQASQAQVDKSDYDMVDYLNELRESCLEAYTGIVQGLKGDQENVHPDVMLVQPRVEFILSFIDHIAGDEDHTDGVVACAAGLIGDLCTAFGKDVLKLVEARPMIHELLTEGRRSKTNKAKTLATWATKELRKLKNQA

Results are given in words; binding and its absence hold for the method and conditions named. In cells and extracts the contact can be indirect. Here binding means that the protein was enriched with, or labelled near, the bait; the list need not be complete.

For this assay, the target named is YFP-Epac1 (exchange protein directly activated by cAMP-1), expressed in HEK293 cells (UniProt O95398). In words: affinity purification with mass spectrometry; GFP-TRAP immunoprecipitation of YFP-Epac1 (GFP as control) from HEK293 lysate; SDS-PAGE, silver stain, bands between 72 and 120 kDa excised, trypsin, LC-MS/MS (Orbitrap Elite), Mascot search of Swiss-Prot.

“HSP70-1A, endogenous in HEK293 cells (from UniProt P0DMV8 1-641)”: the binding result is “binds”.

With “HSP70-2, endogenous in HEK293 cells (from UniProt P54652 1-639)”, the binding entry is “binds”.

For “HSP90α, endogenous in HEK293 cells (from UniProt P07900 1-732)”, the binding entry was “binds”.

With “HSP90β, endogenous in HEK293 cells (from UniProt P08238 1-724)”, the binding result is given as “binds”.

Turning to “importin β1 (impβ1), endogenous in HEK293 cells (from UniProt Q14974 1-876)”, the binding entry is recorded as “binds”.
